Experimental data: patent US20060276416A1, “Methods and compositions for treating flushing and drug induced weight gain” (Sirtris Pharmaceuticals, Inc., priority 2005, published 2006)

Legend:
Assay type in all cases: in vivo
D. melanogaster = D. melanogaster feeding (crop-filling assay) and body mass
C. elegans [1] = assay: C. elegans feeding rate (pharyngeal pumping)
C. elegans [2] = assay: C. elegans fecundity assay

## Oc1ccc(/C=C/c2cc(O)cc(O)c2)cc1 [Resveratrol, 3,5,4′-Trihydroxy-trans-stilbene]
D. melanogaster; 10 μM, 15% SY diet
  Body weight: maintained normal weight
D. melanogaster; resveratrol-fed flies
  Food uptake: no decrease
C. elegans [1]; Adult on dead OP50, 100 μM, control 228±26.2
  Feeding rate: 283±31.9 pumps/min
C. elegans [1]; Adult on live OP50, 100 μM, control 383±16.0
  Feeding rate: 383±22.7 pumps/min
C. elegans [1]; L4 larval and adult worms
  Feeding rates (in words): no differences
C. elegans [1]; L4 on live OP50, 100 μM, control 310±10.2
  Feeding rate: 315±9.8 pumps/min
C. elegans [2]; 100 μM, controls 106
  Fecundity of adult hermaphrodites: 99 eggs/5 worms/5 hours
C. elegans [2]; resveratrol treatment
  Fecundity (in words): no decrease
